# Only a part is listed here, and it is no random draw.
# Sequences of proteins named here, by UniProt entry; tags and fusion partners are left off. A change or cut given only in a name is not applied to a line headed by its entry.
# UniProt Q9P0P0: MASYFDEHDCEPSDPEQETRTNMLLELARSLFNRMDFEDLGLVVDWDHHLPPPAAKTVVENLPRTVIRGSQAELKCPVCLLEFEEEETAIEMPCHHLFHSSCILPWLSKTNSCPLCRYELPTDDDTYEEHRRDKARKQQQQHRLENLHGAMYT
# UniProt Q9UBF8: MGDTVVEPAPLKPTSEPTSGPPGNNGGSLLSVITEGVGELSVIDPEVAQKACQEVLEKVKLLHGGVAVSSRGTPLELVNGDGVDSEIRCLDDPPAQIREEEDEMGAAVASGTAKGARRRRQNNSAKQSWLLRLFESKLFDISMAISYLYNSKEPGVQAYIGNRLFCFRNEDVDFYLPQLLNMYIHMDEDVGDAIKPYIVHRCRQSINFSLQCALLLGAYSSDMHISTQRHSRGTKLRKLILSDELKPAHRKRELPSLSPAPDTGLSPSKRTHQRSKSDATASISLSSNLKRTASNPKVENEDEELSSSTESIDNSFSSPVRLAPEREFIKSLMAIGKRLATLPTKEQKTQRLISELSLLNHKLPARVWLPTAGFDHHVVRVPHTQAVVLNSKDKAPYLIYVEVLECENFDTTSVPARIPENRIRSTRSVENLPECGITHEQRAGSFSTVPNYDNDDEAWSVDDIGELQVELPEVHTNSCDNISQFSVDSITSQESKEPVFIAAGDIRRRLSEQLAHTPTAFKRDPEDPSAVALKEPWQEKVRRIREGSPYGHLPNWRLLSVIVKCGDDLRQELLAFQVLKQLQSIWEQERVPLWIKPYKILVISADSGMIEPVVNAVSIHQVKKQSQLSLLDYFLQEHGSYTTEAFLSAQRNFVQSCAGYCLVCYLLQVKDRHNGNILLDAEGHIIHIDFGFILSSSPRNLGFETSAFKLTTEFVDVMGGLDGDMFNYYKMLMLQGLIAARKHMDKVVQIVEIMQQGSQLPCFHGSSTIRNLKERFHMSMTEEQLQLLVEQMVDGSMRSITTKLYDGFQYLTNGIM
# UniProt Q9NUQ8: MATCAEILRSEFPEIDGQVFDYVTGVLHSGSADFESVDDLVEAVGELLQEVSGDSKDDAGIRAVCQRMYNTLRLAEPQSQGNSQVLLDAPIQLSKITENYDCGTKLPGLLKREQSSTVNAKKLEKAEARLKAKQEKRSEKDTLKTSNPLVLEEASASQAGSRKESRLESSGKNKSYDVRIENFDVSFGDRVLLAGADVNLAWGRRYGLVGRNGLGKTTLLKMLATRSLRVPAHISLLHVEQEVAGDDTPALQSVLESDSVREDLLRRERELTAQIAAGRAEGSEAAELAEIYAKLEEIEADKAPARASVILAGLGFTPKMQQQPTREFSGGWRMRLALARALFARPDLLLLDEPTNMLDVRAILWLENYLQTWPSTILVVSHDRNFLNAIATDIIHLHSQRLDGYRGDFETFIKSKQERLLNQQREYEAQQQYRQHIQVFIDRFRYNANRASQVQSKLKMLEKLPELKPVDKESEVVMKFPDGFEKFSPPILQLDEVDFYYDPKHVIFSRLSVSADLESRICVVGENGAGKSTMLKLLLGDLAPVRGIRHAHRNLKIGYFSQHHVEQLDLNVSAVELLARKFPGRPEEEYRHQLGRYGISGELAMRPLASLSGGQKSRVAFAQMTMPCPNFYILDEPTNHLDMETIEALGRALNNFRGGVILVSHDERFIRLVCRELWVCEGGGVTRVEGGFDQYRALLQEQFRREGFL
# UniProt Q9P2J5: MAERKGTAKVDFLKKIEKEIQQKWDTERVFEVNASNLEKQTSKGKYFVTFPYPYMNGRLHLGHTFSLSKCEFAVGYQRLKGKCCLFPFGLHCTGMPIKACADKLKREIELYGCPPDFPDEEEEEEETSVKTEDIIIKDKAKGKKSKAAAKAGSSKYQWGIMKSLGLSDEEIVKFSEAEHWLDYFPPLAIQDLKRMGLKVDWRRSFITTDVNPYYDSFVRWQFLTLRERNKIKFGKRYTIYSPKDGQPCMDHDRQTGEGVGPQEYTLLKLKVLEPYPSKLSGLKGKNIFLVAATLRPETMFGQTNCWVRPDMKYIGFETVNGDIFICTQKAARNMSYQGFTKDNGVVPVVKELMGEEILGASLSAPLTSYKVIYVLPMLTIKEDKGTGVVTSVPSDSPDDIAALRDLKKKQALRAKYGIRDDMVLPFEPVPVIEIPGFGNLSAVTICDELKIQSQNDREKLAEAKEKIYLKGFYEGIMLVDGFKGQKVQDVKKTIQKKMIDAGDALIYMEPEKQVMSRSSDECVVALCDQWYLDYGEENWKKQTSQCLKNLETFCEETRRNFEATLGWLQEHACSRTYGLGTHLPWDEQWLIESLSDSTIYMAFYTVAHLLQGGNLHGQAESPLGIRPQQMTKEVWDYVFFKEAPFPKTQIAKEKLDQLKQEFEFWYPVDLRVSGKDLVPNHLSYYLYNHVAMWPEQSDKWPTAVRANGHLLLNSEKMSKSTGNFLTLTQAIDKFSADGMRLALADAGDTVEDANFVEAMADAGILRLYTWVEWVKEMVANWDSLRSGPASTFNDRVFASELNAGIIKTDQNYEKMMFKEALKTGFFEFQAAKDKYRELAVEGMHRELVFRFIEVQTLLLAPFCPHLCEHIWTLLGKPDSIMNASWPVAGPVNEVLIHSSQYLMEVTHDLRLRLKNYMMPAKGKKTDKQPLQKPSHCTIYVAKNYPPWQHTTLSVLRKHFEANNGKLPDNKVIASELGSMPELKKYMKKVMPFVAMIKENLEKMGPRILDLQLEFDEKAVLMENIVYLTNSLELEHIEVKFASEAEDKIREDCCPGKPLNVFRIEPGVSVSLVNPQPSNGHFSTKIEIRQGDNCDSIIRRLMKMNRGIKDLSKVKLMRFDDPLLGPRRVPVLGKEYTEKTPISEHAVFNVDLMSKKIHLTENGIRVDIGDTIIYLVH
# UniProt Q9UBD5: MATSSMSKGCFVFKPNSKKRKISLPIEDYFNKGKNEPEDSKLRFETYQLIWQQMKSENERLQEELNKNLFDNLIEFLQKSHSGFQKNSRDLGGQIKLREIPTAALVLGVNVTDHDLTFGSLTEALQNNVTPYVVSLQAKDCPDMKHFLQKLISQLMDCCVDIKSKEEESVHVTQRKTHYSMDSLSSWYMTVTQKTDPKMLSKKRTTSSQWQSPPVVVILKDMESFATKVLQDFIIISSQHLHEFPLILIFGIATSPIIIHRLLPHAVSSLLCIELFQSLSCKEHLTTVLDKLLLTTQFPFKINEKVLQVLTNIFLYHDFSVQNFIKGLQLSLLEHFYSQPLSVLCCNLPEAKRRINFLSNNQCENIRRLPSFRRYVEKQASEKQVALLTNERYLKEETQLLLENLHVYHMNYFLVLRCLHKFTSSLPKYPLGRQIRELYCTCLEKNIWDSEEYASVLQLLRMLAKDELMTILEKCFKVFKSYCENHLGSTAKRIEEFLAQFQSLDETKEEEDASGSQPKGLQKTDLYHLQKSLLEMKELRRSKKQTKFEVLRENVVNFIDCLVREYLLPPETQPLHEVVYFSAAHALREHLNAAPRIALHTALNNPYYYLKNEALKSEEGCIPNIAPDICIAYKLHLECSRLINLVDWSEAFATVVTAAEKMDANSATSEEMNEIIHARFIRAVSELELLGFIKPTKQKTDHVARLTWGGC
# UniProt Q9UGI8: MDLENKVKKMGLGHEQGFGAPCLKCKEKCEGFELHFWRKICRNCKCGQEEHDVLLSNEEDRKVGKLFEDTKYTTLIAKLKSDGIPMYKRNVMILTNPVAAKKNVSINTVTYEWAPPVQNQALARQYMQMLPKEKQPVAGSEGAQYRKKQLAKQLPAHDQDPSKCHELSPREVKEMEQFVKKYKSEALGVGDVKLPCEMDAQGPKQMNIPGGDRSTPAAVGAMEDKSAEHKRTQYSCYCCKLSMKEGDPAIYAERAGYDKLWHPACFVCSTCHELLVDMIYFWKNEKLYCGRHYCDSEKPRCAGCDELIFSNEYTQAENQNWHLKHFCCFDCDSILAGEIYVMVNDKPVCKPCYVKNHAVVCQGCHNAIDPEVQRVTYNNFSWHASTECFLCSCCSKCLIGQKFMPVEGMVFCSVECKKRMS
# UniProt Q9NUU6: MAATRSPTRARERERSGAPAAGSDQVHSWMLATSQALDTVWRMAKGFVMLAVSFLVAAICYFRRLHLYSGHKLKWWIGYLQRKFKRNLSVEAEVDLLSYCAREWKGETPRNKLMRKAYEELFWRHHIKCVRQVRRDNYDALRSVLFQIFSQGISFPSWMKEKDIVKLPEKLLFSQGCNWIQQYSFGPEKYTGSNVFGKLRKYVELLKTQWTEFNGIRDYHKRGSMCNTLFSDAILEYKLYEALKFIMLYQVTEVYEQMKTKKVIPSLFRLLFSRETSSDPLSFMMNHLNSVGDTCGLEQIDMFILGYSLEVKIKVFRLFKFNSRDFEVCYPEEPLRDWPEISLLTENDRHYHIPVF
# UniProt Q9NVP2, whole entry, looked up: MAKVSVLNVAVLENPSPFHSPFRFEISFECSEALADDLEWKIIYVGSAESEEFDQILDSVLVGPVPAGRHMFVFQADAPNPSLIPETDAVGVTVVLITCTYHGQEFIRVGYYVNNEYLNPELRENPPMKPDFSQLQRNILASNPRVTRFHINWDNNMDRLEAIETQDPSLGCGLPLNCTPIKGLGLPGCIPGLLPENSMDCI
# UniProt Q9NZ09: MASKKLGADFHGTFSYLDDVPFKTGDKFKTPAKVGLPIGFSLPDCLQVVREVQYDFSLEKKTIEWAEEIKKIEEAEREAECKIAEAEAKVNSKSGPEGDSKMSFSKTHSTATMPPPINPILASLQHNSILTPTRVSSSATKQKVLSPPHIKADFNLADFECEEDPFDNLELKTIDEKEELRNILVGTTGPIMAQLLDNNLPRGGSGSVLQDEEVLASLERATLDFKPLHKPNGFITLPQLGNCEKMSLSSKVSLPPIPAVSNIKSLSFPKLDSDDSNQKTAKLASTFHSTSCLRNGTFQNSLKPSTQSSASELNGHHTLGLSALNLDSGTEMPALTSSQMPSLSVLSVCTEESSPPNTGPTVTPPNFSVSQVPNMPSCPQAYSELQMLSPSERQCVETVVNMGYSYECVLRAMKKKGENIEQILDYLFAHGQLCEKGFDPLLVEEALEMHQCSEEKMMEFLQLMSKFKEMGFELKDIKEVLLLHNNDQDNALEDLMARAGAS
# UniProt Q9NZB2: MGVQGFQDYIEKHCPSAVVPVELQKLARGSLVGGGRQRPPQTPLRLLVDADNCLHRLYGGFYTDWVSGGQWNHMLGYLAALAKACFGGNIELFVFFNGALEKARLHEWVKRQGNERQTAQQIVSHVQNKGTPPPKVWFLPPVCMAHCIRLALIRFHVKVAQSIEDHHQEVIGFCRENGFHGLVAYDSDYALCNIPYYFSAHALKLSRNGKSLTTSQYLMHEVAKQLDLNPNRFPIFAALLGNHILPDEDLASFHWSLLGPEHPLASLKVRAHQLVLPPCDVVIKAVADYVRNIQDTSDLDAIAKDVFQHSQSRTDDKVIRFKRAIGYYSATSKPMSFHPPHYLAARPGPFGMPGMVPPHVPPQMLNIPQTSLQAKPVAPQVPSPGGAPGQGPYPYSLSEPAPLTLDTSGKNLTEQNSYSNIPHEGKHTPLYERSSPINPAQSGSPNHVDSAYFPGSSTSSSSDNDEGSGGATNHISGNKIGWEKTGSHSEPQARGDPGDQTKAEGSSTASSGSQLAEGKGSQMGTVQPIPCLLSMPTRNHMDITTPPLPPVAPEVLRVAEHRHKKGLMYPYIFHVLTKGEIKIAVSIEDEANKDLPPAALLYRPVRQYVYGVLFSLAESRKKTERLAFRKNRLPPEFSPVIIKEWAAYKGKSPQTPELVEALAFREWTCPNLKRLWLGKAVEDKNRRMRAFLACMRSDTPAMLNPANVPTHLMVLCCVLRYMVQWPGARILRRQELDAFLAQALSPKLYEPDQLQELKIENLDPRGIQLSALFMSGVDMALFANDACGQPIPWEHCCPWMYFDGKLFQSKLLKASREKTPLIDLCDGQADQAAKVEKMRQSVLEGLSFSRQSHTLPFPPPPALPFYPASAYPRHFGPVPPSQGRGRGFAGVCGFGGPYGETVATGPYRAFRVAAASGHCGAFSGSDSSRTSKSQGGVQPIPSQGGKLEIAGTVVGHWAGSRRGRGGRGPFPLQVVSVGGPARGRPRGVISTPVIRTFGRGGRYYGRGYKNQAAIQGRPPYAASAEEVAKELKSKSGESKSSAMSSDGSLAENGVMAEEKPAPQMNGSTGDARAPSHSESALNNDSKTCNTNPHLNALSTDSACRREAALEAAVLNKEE
# UniProt Q9NW68: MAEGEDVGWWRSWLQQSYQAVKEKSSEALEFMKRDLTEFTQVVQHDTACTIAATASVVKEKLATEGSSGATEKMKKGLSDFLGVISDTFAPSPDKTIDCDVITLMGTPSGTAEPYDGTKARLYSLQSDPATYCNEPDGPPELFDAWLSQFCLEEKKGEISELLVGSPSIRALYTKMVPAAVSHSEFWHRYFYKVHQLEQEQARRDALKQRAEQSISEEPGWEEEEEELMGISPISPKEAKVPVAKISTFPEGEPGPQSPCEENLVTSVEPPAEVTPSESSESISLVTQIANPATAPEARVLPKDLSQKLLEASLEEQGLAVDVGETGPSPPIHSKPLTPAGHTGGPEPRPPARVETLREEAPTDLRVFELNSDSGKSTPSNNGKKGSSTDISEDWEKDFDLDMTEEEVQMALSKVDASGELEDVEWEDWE
# Compound: COC(=O)C#Cc1ccccc1 [methyl 3-phenylpropiolate]
# Experiment: log2 ratio of iodoacetamide-alkyne labeling of the cysteine site, DMSO over compound (competition); higher = stronger covalent engagement of the cysteine by the compound, active = 1 or more
# Details: 500 µM; treatment time 1 h; system: HEK293T cell lysate
# How it was run: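 The log2 competition ratio per cysteine is defined as mean reporter intensity in control channels over mean reporter intensity in compound channels. Lysate from HEK293T cells (2 mg/mL) received electrophile (500 µM) or vehicle for 1 h at ambient temperature, followed by iodoacetamide alkyne for 1 h. Samples were clicked to sCIP-TMT reagents, pooled, trypsin-digested overnight at 37 °C, streptavidin-enriched, acid-eluted and run on Orbitrap Eclipse LC-MS/MS with FAIMS, with quantification in FragPipe. Three replicates with duplicate channels were used, and any cysteine quantified in only one replicate was excluded.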
row,Target,log2 ratio of iodoacetamide-alkyne labeling
1,OGFR C417 (UniProt Q9NZT2),inactive: 0.39
2,INTS10 C7 (UniProt Q9NVR2),inactive: 0.735
3,UniProt Q9NYL2_C285,inactive: 0.195
4,DNMT3B C651 (UniProt Q9UBC3),inactive: 0.165
5,RNF181 C10 (UniProt Q9P0P0),inactive: 0.0512
6,UniProt Q9UBF8_C89,inactive: 0.445
7,ABCF3 C4 (UniProt Q9NUQ8),inactive: 0.14
8,ARMCX3 C52 (UniProt Q9UH62),inactive: 0.474
9,OGFR C330 (UniProt Q9NZT2),inactive: 0.375
10,SDAD1 C87 (UniProt Q9NVU7),inactive: 0.16
11,LARS C113 (UniProt Q9P2J5),inactive: 0.179
12,UCKL1 C317 (UniProt Q9NWZ5),inactive: 0.327
13,UniProt Q9NUQ3_C127,inactive: 0.926
14,UTP6 C175 (UniProt Q9NYH9),active: 1.62
15,MRPL22 C70 (UniProt Q9NWU5),inactive: -0.289
16,CNOT2 C175 (UniProt Q9NZN8),inactive: 0.132
17,FANCI C1209 (UniProt Q9NVI1),inactive: 0.0742
18,UniProt Q9UBD5_C363,inactive: 0.31
19,PHRF1 C797 (UniProt Q9P1Y6),inactive: 0.306

row,Target,log2 ratio of iodoacetamide-alkyne labeling
1,TES C196 (UniProt Q9UGI8),inactive: 0.308
2,SRP68 C525 (UniProt Q9UHB9),inactive: 0.497
3,UniProt Q9NYU2_C1386,inactive: 0.739
4,TES C238 (UniProt Q9UGI8),inactive: 0.00153
5,ALKBH4 C159 (UniProt Q9NXW9),inactive: 0.233
6,UniProt Q9P289_C410,inactive: 0.385
7,MRPS18A C108 (UniProt Q9NVS2),inactive: 0.0912
8,FAM105A C177 (UniProt Q9NUU6),inactive: 0.221
9,ASF1B C189 (UniProt Q9NVP2),inactive: 0.0773
10,LARS C573 (UniProt Q9P2J5),inactive: 0.342
11,UBAP1 C161 (UniProt Q9NZ09),inactive: 0.103
12,NDRG3 C359 (UniProt Q9UGV2),inactive: 0.319
13,TES C164 (UniProt Q9UGI8),inactive: -0.12
14,NDOR1 C507 (UniProt Q9UHB4),inactive: -0.123
15,MPP6 C298 (UniProt Q9NZW5),inactive: 0.618
16,FAM120A C919 (UniProt Q9NZB2),inactive: 0.985
17,BSDC1 C49 (UniProt Q9NW68),inactive: -0.0312
18,UniProt Q9NV64_C29,active: 1.11

# A section from the list above, as a working copy:
row,Target,log2 ratio of iodoacetamide-alkyne labeling
5,ALKBH4 C159 (UniProt Q9NXW9),inactive: 0.233
6,UniProt Q9P289_C410,inactive: 0.385
7,MRPS18A C108 (UniProt Q9NVS2),inactive: 0.0912
8,FAM105A C177 (UniProt Q9NUU6),inactive: 0.221
9,ASF1B C189 (UniProt Q9NVP2),inactive: 0.0773
10,LARS C573 (UniProt Q9P2J5),inactive: 0.342
11,UBAP1 C161 (UniProt Q9NZ09),inactive: 0.103
12,NDRG3 C359 (UniProt Q9UGV2),inactive: 0.319
13,TES C164 (UniProt Q9UGI8),inactive: -0.12

# — the supplement of paper PMC11006884
